Assay results: article PMC6381112
No constants are given. Whether binding was seen depends on the method and setting. Binding calls can cover weak binding; strength is not graded here. Tags and fused reporters may be left off the sequences shown.

Sequences of proteins named here, by UniProt entry; tags and fusion partners are left off. A change or cut given only in a name is not applied to a line headed by its entry.
UniProt Q96AC1: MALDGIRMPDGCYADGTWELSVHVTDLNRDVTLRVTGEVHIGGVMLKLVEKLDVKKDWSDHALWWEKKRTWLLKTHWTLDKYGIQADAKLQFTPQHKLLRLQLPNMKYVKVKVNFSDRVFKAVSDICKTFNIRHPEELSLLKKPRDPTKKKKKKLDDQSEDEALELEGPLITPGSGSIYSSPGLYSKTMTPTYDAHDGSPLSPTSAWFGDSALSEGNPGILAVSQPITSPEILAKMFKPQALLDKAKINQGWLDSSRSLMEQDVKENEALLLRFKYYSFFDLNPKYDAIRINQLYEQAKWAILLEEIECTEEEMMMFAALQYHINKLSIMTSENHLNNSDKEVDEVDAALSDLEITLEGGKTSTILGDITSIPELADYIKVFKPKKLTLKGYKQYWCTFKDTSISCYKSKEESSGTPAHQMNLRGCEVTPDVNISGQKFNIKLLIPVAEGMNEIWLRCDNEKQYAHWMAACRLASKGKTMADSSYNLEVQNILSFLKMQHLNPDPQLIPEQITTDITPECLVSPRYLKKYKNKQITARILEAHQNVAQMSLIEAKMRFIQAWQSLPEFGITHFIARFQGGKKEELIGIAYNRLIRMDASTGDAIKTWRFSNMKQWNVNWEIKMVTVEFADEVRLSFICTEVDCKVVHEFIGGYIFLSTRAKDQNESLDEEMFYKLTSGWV

How the values were obtained:
[1] = biological target: GST-kindlin-2 with deletion of F1 (UniProt Q96AC1); assay: pull-down; GST or GST-fusion proteins bound to glutathione-Sepharose beads incubated with purified His-tagged PYCR1 (0-40 μg ml^-1) for 2 h at 4 °C; washed with 20 mM Tris pH 7.5, 150 mM NaCl, 0.1% Triton; western blotting with anti-His and anti-GST; both purified
[2] = biological target: GST-kindlin-2 with deletion of F3 (UniProt Q96AC1); assay: as above

binding [1]: binds
binding [2]: binds
B1: His-tagged PYCR1 (enzyme, UniProt P32322 1-319)
chain: MSVGFIGAGQLAFALAKGFTAAGVLAAHKIMASSPDMDLATVSALRKMGVKLTPHNKETVQHSDVLFLAVKPHIIPFILDEIGADIEDRHIVVSCAAGVTISSIEKKLSAFRPAPRVIRCMTNTPVVVREGATVYATGTHAQVEDGRLMEQLLSSVGFCTEVEEDLIDAVTGLSGSGPAYAFTALDALADGGVKMGLPRRLAVRLGAQALLGAAKMLLHSEQHPGQLKDNVSSPGGATIHALHVLESGGFRSLLINAVEASCIRTRELQSMADQEQVSPAAIKKTILDKVKLDSPAGTALSPSGHTKLLPRSLAPAGKD
